Measurements taken from patent EP4727976A2.
These are yes or no findings as the source states them, for the method shown. Some binding calls cover weakened binding; strength is not graded here. Tags and fused reporters may be left off the sequences shown.

How the values were obtained:
[1] = target: T1, human MICA, 6XHis tagged (human) (UniProt Q29983); assay: BLI binding kinetics (legend of FIG. 8)
T1 sequence (looked up): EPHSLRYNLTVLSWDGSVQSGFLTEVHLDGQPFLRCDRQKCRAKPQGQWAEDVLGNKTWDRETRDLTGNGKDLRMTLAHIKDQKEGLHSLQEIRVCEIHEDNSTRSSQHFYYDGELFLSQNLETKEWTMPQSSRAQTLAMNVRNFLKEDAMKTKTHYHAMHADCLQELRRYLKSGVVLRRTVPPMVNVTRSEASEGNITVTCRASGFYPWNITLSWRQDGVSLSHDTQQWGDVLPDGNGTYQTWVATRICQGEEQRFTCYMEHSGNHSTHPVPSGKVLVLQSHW

[2] = target: T2, human MICB, 6XHis tagged (human) (UniProt Q29980); assay: BLI binding kinetics (legend of FIG. 8)
T2 sequence (looked up): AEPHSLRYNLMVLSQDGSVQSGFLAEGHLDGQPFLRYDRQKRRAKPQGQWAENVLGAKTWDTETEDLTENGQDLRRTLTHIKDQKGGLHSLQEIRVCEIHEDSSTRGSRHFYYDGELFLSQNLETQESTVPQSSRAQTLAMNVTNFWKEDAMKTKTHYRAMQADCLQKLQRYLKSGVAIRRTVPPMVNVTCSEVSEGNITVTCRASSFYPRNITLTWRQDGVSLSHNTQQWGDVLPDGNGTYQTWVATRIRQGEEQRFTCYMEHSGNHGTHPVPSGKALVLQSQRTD

[3] = target: T1, human MICA, 6XHis tagged (human); assay: BLI (Gator Bio), antibody on anti-Fc biosensors, 200 nM 6XHis tagged antigen, monovalent format
[4] = target: T2, human MICB, 6XHis tagged (human); assay: as above

Measured: binding

B1: ATX-P-1826 (fully humanized anti-MICA antibody) (antibody, human IgG1, kappa, V domains shown)
VH: QVQLVQSGAEVRKPGASVKVSCKASGYTFTGNYIHWVRQAPGQGLEWMGWINPNSGATNSAQKFQGRVTTTRDTSIDTAYMELSRLRSDDTAVYYCARDTFKPYYYYYLDVWGKGTTVTVSS
VL: DIQMTQSPSSVSASVGDRVTITCRTSQAINSWLAWYQQKPGKPPKLLISAASSLQSGVPSRFSGSGSGTDFTLTISNLQPEDFATYYCQQANIFPLTFGGGTKVEIKR
binds: all assays above
